Hit rate of the full screen: of about 340,000 compounds, about 170 (0.05%) were called active. Inconclusive results, whose numbers are uncertain, are shown with a selection of clear calls. Calls follow the shape of the dose curve; as a rule, active = well fitted inhibition curve with a large enough effect in the signal ratio, with a control signal flat (not every such curve was filed as active); inconclusive = small, poorly fitted or top-dose-only effect, or effect the other way, or a change in a side signal; inactive = flat fitted curve, though single readings scatter; the % refers to the signal ratio. Potencies of inconclusive entries are doubtful fits and often do not repeat.
Test: qHTS Assay to Find Inhibitors of Chronic Active B-Cell Receptor Signaling;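 as to activity change, negative = inhibition: plate controls were basal doxycycline-induced cells for no effect and cells given 10 µM MG132 for full effect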
Settings: ABC-DLBCL IkBa-CBG/CBR reporter, luminescence ratio (green luciferase fused to IkBa over red control in TMD8 lymphoma cells), 4 h; activity change, negative = inhibition: at 46.1 µM (top of the series) unless noted
Method in brief: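 Cell line TMD8 (human ABC DLBCL), stably expressing tet-inducible CBG68-IkBa fusion and CBR; IMDM/0.5% FBS; cpd up to 46 uM; dox induction, 4 h, 37C/5% CO2; dual luminescence; green/red ratio; MG132 control.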
Potency is read from the fitted curve at half-maximal effect.

Row | Structure (SMILES) | activity change, negative = inhibition | Potency
1 | C[C@H](CO)N1C[C@H](C)[C@@H](CN(C)Cc2ccc3c(c2)OCO3)Oc2c(NS(C)(=O)=O)cccc2C1=O | inconclusive: -0.13% | –
2 | Cc1c(CCC(=O)NCCCn2ccnc2)c(=O)oc2c(C)c3oc4c(c3cc12)CCCC4 | – | inconclusive: 4.47 µM [falling, full curve, poor fit]
3 | COc1cccc(NC(=O)CC(=O)c2ccccc2)c1 | – | inconclusive: 35.5 µM [falling, single point]
4 | Cn1c(=N)n(CC(O)c2ccccc2)c2ccccc21 (stereo not given) | inconclusive: 13.7% | –
5 | CCOC(=O)CNC(=O)c1cc2c(=O)[nH]c3ccc(C)cc3c2s1 | inconclusive: 3.38% | –
6 | Cc1c(C(=O)N(Cc2ccc(N(C)C)cc2)C2CCS(=O)(=O)C2)oc2ccccc12 (stereo not given) | inconclusive: 0.0531% | –
7 | O=C(O)CCCCCCCC(=O)O | inactive: 13.6% | –
8 | Cc1ccc(O)c(N=Nc2nccs2)c1 | inconclusive: -16.7% | –
9 | COc1ccccc1-c1cc(C(=O)N2CCCC2)no1 | – | inconclusive: 17.8 µM [falling, partial curve, poor fit]
10 | CC[C@@]12C(=O)N(c3cccc(C)c3)C(=O)N1[C@H](c1ccc(OC)cc1)[C@@H]1C(=O)N(C(C)(C)C)C(=O)[C@@H]12 | inactive: 1.68% | –
11 | NC(=O)c1cccc2c1-c1ccccc1/C2=N/NC(N)=S | inactive: -0.648% | –
12 | Cc1ccc(Nc2ncnc3c2oc2ccccc23)cc1 | – | inconclusive: 1.64 µM [rising, partial curve, poor fit]
13 | CC1=C(c2ccccc2)[N+](=O)C2(CCCCC2)N1[O-] | inconclusive: -21.1% | –
14 | Clc1ccc(OCCOCCN2CCc3ccccc3C2)c(Cl)c1 | inconclusive: 6.97% | –
15 | O=C(NC(=S)Nc1ccccc1F)c1ccc(Br)o1 | inconclusive: 7.24% | –
16 | Cc1ccc(-c2nnc(Nc3ccc(Br)cc3)c3ccccc23)cc1S(=O)(=O)N1CCN(C)CC1 | – | inconclusive: 20 µM [falling, partial curve]
17 | CO/N=C/C(=N\Nc1ccc(OC)cc1)C(=O)c1ccc(OC)cc1 | inconclusive: -30.5% | –
18 | NCCCn1c(C(=O)c2cc(Cl)c(N)c(Cl)c2)c2ccc([N+](=O)[O-])cc2[n+]1[O-] | – | inconclusive: 23.1 µM [falling, partial curve]
19 | COc1ccc(-c2nnc(SC(C)C(=O)Nc3cccc(Cl)c3)o2)cc1 (stereo not given) | inactive: -15% | –
20 | COc1cc([N+](=O)[O-])cc(/C=N/NC(=O)c2ccc(C)nc2)c1O | – | inconclusive: 29.1 µM [rising, partial curve, poor fit]

Row | Structure (SMILES) | activity change, negative = inhibition | Potency
21 | CC(Oc1ccc(Br)cc1)C(=O)Nc1ccc(S(=O)(=O)Nc2nccs2)cc1 (stereo not given) | inconclusive: 1.93% | –
22 | O=S(=O)(Nc1ccc(-c2nc3cccnc3s2)cc1)c1cc(F)ccc1F | inactive: 16.8% | –
23 | CN(CC(=O)Nc1sccc1C#N)Cc1ccccc1 | inconclusive: 6.24% | –
24 | Cc1nn(-c2ccccc2)nc1C(=O)Oc1cc(C(F)(F)F)nn1-c1ccccc1 | – | inconclusive: 1.41 µM [rising, full curve]
25 | CSc1ccc(CCNC(=O)C2CCCN(c3ncnc4c3nc3n4CCCCC3)C2)cc1 (stereo not given) | inactive: 5.56% | –
26 | CN(c1cccc(NC(=O)c2ccc(CN3CCc4ccccc4C3)cc2)c1)S(C)(=O)=O | – | inconclusive: 17.8 µM [falling, single point]
27 | CCN(CC)CCN(C(=O)CCS(=O)(=O)c1ccccc1)c1nc2c(C)cc(C)cc2s1 | inactive: 10.6% | –
28 | COc1ccc(C(CCN2CCOCC2)c2c(OC)cc(OC)c3c(-c4ccccc4)cc(=O)oc23)cc1 (stereo not given) | – | inconclusive: 29.1 µM [falling, single point]
29 | CC(C)(C)N(Cc1ccccc1)C(=O)COC(=O)c1ccc(Br)o1 | inconclusive: 12.1% | –
30 | COc1ccccc1CNC(=O)c1ccc2nc(N3CCOCC3)sc2c1 | – | inconclusive: 20 µM [falling, partial curve, poor fit]
31 | CN(C)S(=O)(=O)N1CCC(CO)(CCc2ccccc2)CC1 | inconclusive: 7.85% | –
32 | O=[N+]([O-])c1cccnc1Oc1ccc(OCc2ccccc2)cc1 | inconclusive: 0.63% | –
33 | O=c1[nH]cnc2c1C(c1ccccc1[N+](=O)[O-])c1c(nc[nH]c1=O)O2 | inconclusive: -5.32% | –
34 | CCNC(=S)N1CCN(CC(=O)Nc2ccc(Br)cc2)CC1 | inconclusive: 8.08% | –
35 | COc1ccccc1N1C(=O)CSC1=NC(=O)c1ccccc1 | – | inconclusive: 0.562 µM [falling, full curve, poor fit]
36 | C=C(C)COc1ccc(-c2[nH]ncc2-c2ccccc2OC)c(O)c1 | inconclusive: 1.31% | –
37 | O=C(CC1Sc2ncnn2C1=O)Nc1ccc(Cl)cc1 (stereo not given) | inconclusive: -6.43% | –
38 | COc1ccccc1CNC(=O)c1ccccc1OCc1ccc(F)cc1 | inconclusive: 8.44% | –
39 | CCN1C(=O)c2cccc3c(S(=O)(=O)Nc4ccccc4O)ccc1c23 | inconclusive: -5.03% | –
40 | CCc1cc(C(=O)NNC(=S)Nc2ccccc2C)cs1 | – | inconclusive: 0.00517 µM [rising, full curve, poor fit]

Records 28–29, reprinted for reference:
Row | Structure (SMILES) | activity change, negative = inhibition | Potency
28 | COc1ccc(C(CCN2CCOCC2)c2c(OC)cc(OC)c3c(-c4ccccc4)cc(=O)oc23)cc1 (stereo not given) | – | inconclusive: 29.1 µM [falling, single point]
29 | CC(C)(C)N(Cc1ccccc1)C(=O)COC(=O)c1ccc(Br)o1 | inconclusive: 12.1% | –

Reference: PubChem BioAssay AID493014 (National Center for Advancing Translational Sciences (NCATS), 2011)
